Assay results: patent US5250542A, “Peripherally selective piperidine carboxylate opioid antagonists” (Eli Lilly and Company, priority 1992, dated 1993)
Structures can show the parent of a compound that is named as a salt. At least one compound was matched to its structure with a doubt left.

Protein sequences, listed by entry. Tags and fused reporters are not part of them.
UniProt P42866, whole entry: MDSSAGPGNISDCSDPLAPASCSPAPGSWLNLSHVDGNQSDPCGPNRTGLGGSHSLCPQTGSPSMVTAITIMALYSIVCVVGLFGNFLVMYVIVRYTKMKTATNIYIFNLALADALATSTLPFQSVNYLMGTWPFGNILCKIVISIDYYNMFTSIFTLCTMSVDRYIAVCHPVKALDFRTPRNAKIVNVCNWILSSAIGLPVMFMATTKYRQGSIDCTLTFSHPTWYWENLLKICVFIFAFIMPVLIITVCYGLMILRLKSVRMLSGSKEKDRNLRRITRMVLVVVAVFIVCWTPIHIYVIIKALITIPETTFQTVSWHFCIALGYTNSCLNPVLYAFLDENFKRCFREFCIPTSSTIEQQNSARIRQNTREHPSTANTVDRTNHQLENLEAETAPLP

target: T1, opioid receptor (Mus musculus, UniProt P42866); assay: mouse writhing analgesis test: block of morphine-induced analgesia; format: in vivo, CF-1 male mice; design: unit not given here; conditions: dose of antagonist that reduced the inhibition of writhing produced by 1.25 mg/kg morphine sulfate to 50%; subcutaneous, 20 min before acetic acid
T1 construct: Five CF-1 male mice (Charles River, Portage, Mich.); from tissue; host or cells: living CF-1 male mice (in vivo test; endogenous receptor)
Procedure: In order to determine in vivo opioid receptor antagonism, the mouse writhing analgesis test was used. Test compounds were measured for their ability to block morphine-induced analgesia.
Five CF-1 male mice (Charles River, Portage, Mich.), weighing approximately 20 g after being fasted overnight, were observed simultaneously for the writhing response. The writhing response was defined as a contraction of the abdominal musculature, followed by the extension of the hind limbs, and was induced by the intraperitoneal adminstration of 0.6% acetic acid in a volumne of 1 ml/100 g body weight. The observation period was 10 min. in duration, beginning 5 min. after injection of acetic acid. The percent inhibition of writhing was calculated from the average number of writhes in the control (non-drug) group. Each data point is the mean (±standarderror) for five mice. The ED50 was defined as the dose of agonist that inhibited mean writhing by 50%. […] Each mouse was only used once. All drugs were administered subcutaneously (1 ml/100 g bwt) 20 min. before the injection of acetic acid.

SMILES	AD50
C[C@H]1CN(CC(Cc2ccccc2)C(=O)NCC(=O)OC2CCCCC2)CC[C@@]1(C)c1cccc(O)c1 (stereo partly drawn) [Example 52, 2-[[2-(phenylmethyl)-1-oxo-3-[4-(3-hydroxyphenyl)-3,4-dimethyl-1-piperidinyl]propyl]amino]-ethanoic acid cyclohexyl ester monohydrochloride]	8
CNC(=O)CNC(=O)C(CCN1CC[C@@](C)(c2cccc(O)c2)[C@@H](C)C1)c1ccccc1 (relative stereo) [Example 13, N-(methyl)-2-[[4-[4-(3-hydroxyphenyl)-3,4-dimethyl-1-piperidinyl]-2-phenyl-1-oxobutyl]amino]acetamide monohydrochloride]	> 40
CCOC(=O)CCCNC(=O)C(Cc1ccccc1)CN1CC[C@@](C)(c2cccc(O)c2)[C@@H](C)C1 (stereo partly drawn) [Example 61, 4-[[3-[4-(3-hydroxyphenyl)-3,4-dimethyl-1-piperidinyl]-1-oxo-2-(phenylmethyl)propyl]-amino]butanoic acid ethyl ester monohydrochloride monohydrate]	3.3
